Assay results as given in article PMC4740400.
No constants are given. Whether binding was seen depends on the method and setting. For some assays here: In cells and extracts the contact can be indirect. Some binding calls cover weakened binding; strength is not graded here.

Protein sequences, listed by entry. Tags and fused reporters are not part of them.
UniProt Q13547: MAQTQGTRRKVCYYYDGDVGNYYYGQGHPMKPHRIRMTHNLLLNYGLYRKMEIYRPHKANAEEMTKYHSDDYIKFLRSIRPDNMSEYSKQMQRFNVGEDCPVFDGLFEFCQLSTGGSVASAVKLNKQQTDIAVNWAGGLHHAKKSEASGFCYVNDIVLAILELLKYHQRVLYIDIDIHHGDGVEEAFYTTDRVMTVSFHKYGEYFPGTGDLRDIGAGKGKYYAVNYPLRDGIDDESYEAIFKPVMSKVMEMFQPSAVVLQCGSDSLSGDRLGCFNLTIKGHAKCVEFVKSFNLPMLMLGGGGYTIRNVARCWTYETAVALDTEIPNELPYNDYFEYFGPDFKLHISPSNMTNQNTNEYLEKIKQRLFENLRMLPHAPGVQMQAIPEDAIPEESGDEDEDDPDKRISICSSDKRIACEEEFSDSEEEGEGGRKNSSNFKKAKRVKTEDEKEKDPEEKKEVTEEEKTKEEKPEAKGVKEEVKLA
UniProt Q00987: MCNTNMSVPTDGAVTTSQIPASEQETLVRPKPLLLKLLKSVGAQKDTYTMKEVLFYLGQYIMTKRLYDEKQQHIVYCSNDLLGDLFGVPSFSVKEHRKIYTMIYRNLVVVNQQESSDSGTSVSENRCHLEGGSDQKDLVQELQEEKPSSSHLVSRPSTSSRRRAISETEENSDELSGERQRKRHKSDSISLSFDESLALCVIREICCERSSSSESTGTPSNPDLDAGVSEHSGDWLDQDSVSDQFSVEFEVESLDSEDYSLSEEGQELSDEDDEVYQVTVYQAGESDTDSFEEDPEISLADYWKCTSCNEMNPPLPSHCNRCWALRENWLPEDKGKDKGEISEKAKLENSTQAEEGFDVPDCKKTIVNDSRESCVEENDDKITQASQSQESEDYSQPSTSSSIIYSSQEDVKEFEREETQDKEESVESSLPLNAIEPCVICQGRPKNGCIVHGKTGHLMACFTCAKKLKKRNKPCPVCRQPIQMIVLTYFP

Tests used:
[1] = target: Flag-HDAC1 (histone deacetylase 1) (UniProt Q13547); assay: co-IP; 293T cells transfected with Flag-HDAC1 and HA-MDM2; lysis buffer 50 mM Tris pH 8.0, 150 mM NaCl, 1 mM EDTA, 1% NP-40, 1 mM DTT; immunoprecipitation overnight at 4 °C, western blot; in Fig. 6c cells were treated with RG 7112 (2.5 μM) or vehicle for 24 h
[2] = target: GST-HDAC1 (UniProt Q13547); assay: pull-down; GST or GST-HDAC1 immobilized on a Sepharose 4B column, His-MDM2 applied; bound MDM2 detected by western blot with anti-MDM2 antibody; cell-free; both purified

Substance | binding [1] | binding [2]
HA-MDM2 (pcDNA6-3xHA-MDM2-Myc) (from UniProt Q00987 1-491) | binds | –
His-MDM2 (from UniProt Q00987 1-491) | – | binds
